In patent publication US8324166B2, “Neuroprotection using NAP-like and SAL-like peptide mimetics” (Ramot at Tel-Aviv University, Ltd., priority 2007, dated 2012):
Entries after “also recorded” stand apart in the source; their conditions may differ.

Tested on: actin
Assay: Nuclear actin level in cerebral cortex by immunoblotting
Format: in vivo, mouse
Conditions: NAT treated TAU-Tg vs other groups, listed as NAT

NATLSIHQ (synthetic NAP-like peptide)
amount of actin in cell nucleus: no statistical difference; also recorded: no significant change
